Experimental data published in the supplement of paper PMC10849652.
This is one part of the list.

Chains of the proteins cited; added tags and fusions are not shown. Lines headed by an entry give the natural chain unless they say otherwise; changes in a name come on top.
UniProt Q8TBQ9: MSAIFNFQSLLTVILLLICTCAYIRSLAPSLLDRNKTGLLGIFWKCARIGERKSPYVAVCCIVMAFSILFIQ
UniProt Q7Z7H5: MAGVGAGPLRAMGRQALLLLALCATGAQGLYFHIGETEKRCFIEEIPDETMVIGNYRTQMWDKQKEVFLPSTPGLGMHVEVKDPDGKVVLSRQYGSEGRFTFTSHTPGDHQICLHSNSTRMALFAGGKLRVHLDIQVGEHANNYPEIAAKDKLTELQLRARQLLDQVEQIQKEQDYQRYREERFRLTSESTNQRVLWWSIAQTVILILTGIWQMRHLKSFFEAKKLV
UniProt Q9P0S9: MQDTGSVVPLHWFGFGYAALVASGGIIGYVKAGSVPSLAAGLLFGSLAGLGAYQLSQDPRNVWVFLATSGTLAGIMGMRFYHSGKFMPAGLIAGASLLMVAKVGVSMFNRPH
UniProt Q9BVC6: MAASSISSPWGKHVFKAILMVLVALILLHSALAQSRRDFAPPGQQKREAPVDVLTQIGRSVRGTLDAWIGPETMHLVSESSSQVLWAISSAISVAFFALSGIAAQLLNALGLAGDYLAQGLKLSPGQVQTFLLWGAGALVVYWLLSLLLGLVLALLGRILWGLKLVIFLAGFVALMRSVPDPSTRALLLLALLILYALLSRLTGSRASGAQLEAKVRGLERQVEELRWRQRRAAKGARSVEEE
UniProt Q96I45: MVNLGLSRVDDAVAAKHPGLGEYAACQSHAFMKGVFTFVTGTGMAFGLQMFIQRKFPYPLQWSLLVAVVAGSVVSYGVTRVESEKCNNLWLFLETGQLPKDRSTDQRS
UniProt Q6PI78: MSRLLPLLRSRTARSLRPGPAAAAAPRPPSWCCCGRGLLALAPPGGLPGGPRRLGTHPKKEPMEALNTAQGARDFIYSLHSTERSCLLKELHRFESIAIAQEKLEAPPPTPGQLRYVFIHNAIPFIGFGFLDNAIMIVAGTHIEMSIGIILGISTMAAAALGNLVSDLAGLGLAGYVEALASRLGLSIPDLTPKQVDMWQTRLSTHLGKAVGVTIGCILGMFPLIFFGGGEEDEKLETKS
UniProt Q8NBN3: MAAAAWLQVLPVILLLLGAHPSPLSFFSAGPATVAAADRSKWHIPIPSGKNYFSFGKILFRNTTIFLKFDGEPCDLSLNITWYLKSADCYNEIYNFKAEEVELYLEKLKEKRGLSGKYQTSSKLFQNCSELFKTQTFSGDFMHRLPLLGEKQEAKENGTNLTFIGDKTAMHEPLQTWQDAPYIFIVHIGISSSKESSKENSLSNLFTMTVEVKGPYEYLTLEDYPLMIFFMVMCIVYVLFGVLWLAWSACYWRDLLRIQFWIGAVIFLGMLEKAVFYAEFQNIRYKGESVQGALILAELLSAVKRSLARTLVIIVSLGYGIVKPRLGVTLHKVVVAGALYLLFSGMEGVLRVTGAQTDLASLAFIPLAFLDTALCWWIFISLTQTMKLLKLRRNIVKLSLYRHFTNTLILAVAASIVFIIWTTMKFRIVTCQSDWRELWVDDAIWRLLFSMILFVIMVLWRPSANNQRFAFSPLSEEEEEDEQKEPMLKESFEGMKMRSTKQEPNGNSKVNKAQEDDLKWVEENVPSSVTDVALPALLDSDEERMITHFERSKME
UniProt Q9NX00: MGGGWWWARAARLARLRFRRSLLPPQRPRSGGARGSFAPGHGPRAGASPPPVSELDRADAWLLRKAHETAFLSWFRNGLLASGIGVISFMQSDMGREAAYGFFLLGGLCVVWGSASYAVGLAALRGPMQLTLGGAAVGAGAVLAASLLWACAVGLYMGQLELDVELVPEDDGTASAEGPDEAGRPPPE
UniProt P42167: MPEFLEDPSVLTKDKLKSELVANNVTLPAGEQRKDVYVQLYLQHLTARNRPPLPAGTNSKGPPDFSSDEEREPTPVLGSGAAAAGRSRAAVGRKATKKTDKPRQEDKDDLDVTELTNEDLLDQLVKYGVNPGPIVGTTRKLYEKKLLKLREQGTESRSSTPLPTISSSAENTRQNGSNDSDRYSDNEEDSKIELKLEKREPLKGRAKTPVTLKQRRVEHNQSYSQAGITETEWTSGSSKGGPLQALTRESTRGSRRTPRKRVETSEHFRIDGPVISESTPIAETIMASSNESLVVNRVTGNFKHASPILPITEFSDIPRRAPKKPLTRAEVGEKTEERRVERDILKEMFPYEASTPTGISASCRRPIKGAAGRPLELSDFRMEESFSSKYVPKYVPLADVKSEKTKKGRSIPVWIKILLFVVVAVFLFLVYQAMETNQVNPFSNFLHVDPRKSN
UniProt Q9H0R3: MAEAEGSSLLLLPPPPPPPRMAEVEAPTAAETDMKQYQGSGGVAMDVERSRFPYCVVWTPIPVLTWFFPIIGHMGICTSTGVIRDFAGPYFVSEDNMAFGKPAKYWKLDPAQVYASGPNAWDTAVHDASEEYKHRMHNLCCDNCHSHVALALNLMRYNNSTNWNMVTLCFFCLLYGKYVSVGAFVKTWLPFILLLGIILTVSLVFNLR
UniProt Q9H7F4: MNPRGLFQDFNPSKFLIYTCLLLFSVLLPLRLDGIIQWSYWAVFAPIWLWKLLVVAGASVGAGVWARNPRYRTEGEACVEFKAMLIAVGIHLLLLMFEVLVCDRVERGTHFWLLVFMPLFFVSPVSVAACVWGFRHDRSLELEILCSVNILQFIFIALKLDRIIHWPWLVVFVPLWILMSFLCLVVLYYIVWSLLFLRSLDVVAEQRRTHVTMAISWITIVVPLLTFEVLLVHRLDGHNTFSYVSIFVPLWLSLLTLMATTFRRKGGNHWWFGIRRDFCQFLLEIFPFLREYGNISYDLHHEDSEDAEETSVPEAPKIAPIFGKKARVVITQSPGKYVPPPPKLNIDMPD
UniProt Q96MH6: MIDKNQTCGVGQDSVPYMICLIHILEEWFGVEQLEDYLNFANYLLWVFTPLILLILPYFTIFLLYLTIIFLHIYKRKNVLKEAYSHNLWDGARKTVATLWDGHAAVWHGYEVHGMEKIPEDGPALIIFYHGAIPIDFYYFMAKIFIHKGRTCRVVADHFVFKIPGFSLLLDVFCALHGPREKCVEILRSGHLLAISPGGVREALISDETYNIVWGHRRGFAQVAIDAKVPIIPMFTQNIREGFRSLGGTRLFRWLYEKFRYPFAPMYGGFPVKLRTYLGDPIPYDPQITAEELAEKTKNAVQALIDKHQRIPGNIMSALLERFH
UniProt Q15363: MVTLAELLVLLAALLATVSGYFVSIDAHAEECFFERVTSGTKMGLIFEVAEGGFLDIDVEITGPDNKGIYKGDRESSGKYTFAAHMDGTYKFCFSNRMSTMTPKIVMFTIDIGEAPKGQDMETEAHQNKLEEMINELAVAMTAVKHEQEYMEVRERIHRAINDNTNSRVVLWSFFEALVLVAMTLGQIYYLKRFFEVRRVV
UniProt Q9H1E5: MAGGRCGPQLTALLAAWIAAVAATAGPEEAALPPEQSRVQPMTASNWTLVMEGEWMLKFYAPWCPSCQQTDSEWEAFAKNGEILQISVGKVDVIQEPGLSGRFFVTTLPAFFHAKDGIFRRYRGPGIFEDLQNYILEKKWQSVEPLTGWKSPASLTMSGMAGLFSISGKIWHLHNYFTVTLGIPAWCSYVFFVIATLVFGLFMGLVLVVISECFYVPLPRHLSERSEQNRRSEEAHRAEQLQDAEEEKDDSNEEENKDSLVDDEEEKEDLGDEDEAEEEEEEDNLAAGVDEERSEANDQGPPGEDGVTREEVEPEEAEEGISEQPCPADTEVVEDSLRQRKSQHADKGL
UniProt P42166: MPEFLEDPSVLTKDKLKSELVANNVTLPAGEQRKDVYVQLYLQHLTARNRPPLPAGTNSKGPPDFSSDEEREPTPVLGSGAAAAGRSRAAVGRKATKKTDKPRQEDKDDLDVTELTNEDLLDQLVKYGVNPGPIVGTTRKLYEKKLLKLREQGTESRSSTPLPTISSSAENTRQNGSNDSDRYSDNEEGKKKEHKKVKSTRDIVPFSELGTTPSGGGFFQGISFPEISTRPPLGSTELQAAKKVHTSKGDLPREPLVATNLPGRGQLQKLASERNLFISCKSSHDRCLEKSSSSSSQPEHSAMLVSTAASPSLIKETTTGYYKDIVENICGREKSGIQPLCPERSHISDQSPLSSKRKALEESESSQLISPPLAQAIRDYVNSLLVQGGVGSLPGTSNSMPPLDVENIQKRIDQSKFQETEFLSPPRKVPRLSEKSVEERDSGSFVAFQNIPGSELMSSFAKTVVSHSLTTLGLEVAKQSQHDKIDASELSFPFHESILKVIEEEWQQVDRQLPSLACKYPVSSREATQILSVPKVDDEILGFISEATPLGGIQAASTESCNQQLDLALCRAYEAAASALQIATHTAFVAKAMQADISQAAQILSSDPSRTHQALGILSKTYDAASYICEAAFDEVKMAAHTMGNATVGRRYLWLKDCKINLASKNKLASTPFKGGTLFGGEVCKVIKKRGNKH
UniProt Q4ZIN3: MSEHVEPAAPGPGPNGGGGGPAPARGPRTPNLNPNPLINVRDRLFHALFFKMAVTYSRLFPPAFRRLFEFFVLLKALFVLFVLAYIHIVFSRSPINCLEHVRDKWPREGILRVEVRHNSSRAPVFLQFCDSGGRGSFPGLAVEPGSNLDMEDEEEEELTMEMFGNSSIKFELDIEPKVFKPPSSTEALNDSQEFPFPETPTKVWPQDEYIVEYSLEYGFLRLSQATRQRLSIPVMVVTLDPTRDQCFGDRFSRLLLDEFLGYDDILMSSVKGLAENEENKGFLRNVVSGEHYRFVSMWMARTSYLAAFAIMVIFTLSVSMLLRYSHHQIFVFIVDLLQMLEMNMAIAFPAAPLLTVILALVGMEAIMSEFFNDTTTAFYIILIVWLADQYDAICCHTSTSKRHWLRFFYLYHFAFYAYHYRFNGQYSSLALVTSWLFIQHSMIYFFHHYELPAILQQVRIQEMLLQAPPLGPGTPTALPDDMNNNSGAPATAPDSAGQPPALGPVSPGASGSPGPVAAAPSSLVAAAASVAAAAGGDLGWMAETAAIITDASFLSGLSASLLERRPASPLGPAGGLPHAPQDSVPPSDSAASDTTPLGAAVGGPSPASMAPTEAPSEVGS
UniProt P63313: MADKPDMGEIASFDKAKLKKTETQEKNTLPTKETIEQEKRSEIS
UniProt Q9NWD8: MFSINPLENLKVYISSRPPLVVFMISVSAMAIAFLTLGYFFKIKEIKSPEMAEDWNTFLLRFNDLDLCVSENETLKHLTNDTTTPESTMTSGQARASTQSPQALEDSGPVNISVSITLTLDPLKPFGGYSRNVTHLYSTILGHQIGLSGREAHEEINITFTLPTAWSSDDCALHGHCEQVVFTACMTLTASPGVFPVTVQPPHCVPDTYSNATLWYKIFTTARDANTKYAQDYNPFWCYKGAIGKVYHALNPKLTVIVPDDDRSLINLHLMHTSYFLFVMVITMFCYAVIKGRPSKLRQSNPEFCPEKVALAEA
UniProt Q9Y3Q3: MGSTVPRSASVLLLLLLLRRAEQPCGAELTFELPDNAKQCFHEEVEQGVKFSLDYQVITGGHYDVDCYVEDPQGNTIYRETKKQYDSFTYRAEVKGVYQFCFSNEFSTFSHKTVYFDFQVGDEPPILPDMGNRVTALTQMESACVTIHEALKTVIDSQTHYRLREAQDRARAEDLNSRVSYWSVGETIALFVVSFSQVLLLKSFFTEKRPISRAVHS
UniProt Q96A57: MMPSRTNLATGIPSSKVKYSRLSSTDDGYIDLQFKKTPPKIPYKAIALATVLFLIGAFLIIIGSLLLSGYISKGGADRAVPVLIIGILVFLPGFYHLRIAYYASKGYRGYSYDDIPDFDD
UniProt Q13445: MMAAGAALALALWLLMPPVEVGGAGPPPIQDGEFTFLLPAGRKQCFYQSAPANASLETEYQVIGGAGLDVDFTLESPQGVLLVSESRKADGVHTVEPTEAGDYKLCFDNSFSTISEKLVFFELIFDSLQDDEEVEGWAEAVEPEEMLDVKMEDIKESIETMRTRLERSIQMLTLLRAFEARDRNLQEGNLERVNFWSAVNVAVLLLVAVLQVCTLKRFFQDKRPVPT
UniProt Q0P6H9: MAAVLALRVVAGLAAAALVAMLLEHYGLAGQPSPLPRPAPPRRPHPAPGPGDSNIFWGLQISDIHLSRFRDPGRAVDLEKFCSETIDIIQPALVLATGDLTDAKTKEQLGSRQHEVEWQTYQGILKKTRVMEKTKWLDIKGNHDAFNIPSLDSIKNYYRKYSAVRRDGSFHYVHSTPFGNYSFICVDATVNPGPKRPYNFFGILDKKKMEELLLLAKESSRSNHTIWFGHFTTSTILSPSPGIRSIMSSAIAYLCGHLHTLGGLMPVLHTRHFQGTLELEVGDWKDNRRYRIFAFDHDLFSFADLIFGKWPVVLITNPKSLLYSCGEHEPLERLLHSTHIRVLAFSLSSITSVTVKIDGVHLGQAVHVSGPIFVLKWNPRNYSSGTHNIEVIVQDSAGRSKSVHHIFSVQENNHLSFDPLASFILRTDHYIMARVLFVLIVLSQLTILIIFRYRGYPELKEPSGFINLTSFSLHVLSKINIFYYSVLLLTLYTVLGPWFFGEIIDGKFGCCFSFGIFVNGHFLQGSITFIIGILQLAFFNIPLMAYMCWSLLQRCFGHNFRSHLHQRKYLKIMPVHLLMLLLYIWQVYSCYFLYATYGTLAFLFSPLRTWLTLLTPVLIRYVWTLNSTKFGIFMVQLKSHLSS

Compound: CN1CCc2c(c3ccccc3n2Cc2ccc(C(=O)NO)cc2)C1 [Tubastatin A]
Test: log2 fold change, soluble protein after heating vs DMSO (PISA); higher = thermal stabilisation; K562 cells, 10 uM, 30 min; active = over 0.2 and 3.5 SD of the protein, either way, in both replicates (recomputed)
Outline: (§1)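 Values are thermal stability changes relative to control samples and are taken from duplicates. They are stated as log2 fold changes. Before quantification by TMTpro 16plex LC-MS/MS with equalised channel sums, K562 cells at 2×10^6 cells/mL were treated with 10 μM compound for 30 min, heated in aliquots for 3 min across 48°C-58°C, pooled, extracted in PBS with 0.5% NP-40 at 4°C, and centrifuged at 21,000xg for 90 min to give the soluble supernatant.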

log2 fold change, inactive:
TMEM245 (UniProt Q9H330) -0.045
TMEM167A (UniProt Q8TBQ9) -0.044
TMOD2 (UniProt Q9NZR1) 0.061
TMED4 (UniProt Q7Z7H5) 0.033
TMEM14C (UniProt Q9P0S9) 0.007
TLN2 (UniProt Q9Y4G6) 0.08
TMEM109 (UniProt Q9BVC6) -0.055
TM2D3 (UniProt Q9BRN9) 0.021
TMEM186 (UniProt Q96B77) -0.047
TMEM141 (UniProt Q96I45) -0.002
TMEM65 (UniProt Q6PI78) 0.042
TMEM87A (UniProt Q8NBN3) -0.03
TMEM33 (UniProt P57088) -0.072
TLN1 (UniProt Q9Y490) 0.007
TNFRSF10B (UniProt O14763) 0.06
TMEM160 (UniProt Q9NX00) 0.017
TM9SF3 (UniProt Q9HD45) -0.049
TMPO isoform 2 (UniProt P42167) -0.02
TMOD3 (UniProt Q9NYL9) -0.003
TMEM222 (UniProt Q9H0R3) -0.05
TMEM185B (UniProt Q9H7F4) 0.003
TMA16 (UniProt Q96EY4) 0.102
TMEM30A (UniProt Q9NV96) -0.066
TMEM68 (UniProt Q96MH6) -0.026
TMCO1 (UniProt Q9UM00) 0.018
TMED2 (UniProt Q15363) -0.026
TMX4 (UniProt Q9H1E5) 0.017
TMEM168 (UniProt Q9H0V1) -0.107
TMPO (UniProt P42166) -0.021
TMEM259 (UniProt Q4ZIN3) -0.063
TMSB10 (UniProt P63313) 0.013
TMEM248 (UniProt Q9NWD8) -0.058
TMED3 (UniProt Q9Y3Q3) -0.026
TMEM209 (UniProt Q96SK2) 0.05
TMEM230 isoform 2 (UniProt Q96A57) 0.001
TMED1 (UniProt Q13445) -0.018
TMPO (UniProt P42167) 0.009
TMEM62 (UniProt Q0P6H9) 0.039
TMEM11 (UniProt P17152) -0.058

Compound: CNC(=O)C1=CC=CC=C1NC2=NC(=NC=C2Cl)NC3=C(C=C(C=C3)N4CCOCC4)OC
Test: as above
Outline: as §1

log2 fold change, inactive:
TMEM245 (UniProt Q9H330) -0.017
TMEM167A (UniProt Q8TBQ9) 0.073
TMOD2 (UniProt Q9NZR1) 0.105
TMED4 (UniProt Q7Z7H5) 0.005
TMEM14C (UniProt Q9P0S9) 0.094
TLN2 (UniProt Q9Y4G6) 0.045
TMEM109 (UniProt Q9BVC6) 0
TM2D3 (UniProt Q9BRN9) 0.067
TMEM186 (UniProt Q96B77) 0.009
TMEM141 (UniProt Q96I45) 0.048
TMEM65 (UniProt Q6PI78) 0.03
TMEM87A (UniProt Q8NBN3) 0.024
TMEM33 (UniProt P57088) 0.021
TLN1 (UniProt Q9Y490) 0.063
TNFRSF10B (UniProt O14763) -0.029
TMEM160 (UniProt Q9NX00) -0.009
TM9SF3 (UniProt Q9HD45) 0.052
TMPO isoform 2 (UniProt P42167) -0.023
TMOD3 (UniProt Q9NYL9) 0.014
TMEM222 (UniProt Q9H0R3) 0.028
TMEM185B (UniProt Q9H7F4) 0
TMA16 (UniProt Q96EY4) 0.013
TMEM30A (UniProt Q9NV96) 0.017
TMEM68 (UniProt Q96MH6) 0.005
TMCO1 (UniProt Q9UM00) 0.011
TMED2 (UniProt Q15363) 0.045
TMX4 (UniProt Q9H1E5) -0.009
TMEM168 (UniProt Q9H0V1) 0.023
TMPO (UniProt P42166) -0.077
TMEM259 (UniProt Q4ZIN3) -0.048
TMSB10 (UniProt P63313) -0.028
TMEM248 (UniProt Q9NWD8) -0.074
TMED3 (UniProt Q9Y3Q3) 0.014
TMEM209 (UniProt Q96SK2) -0.077
TMEM230 isoform 2 (UniProt Q96A57) -0.057
TMED1 (UniProt Q13445) 0.027
TMPO (UniProt P42167) -0.003
TMEM62 (UniProt Q0P6H9) -0.064
TMEM11 (UniProt P17152) 0.071
